# From patent US9826741B2, “Tetrazolinone compound and application thereof” (SUMITOMO CHEMICAL COMPANY, LIMITED, priority 2014, dated 2017)
# Some of these results come from one statement about several compounds together.
# System: cucumber powdery mildew fungus (Sphaerotheca fuliginea, a QoI-resistant strain)
# Format: in vivo
# Conditions: 200 ppm foliar spray on cucumber (SAGAMI HANJIRO), cytochrome b position 143 glycine to alanine, assessed after 8 days
row,Structure (SMILES),area of lesion on the treated plant relative to that on an untreated plant
1,"Cc1cc(-c2nn(C)c(Cl)c2C)ccc1SCc1c(C)cccc1-n1nnn(C)c1=O [present compound 1, 1-{3-methyl-2-[2-methyl-4-(1,4-dimethyl-5-chloro-1H-pyrazol-3-yl)-phenylthiomethyl]-phenyl}-4-methyl-1,4-dihydrotetrazol-5-one]",≤ 30%
2,"Cc1cc(C)n(-c2ccc(SCc3c(C)cccc3-n3nnn(C)c3=O)c(C)c2)n1 [present compound 2, 1-{3-Methyl-2-[2-Methyl-4-(3,5-Dimethyl-Pyrazol-1-yl)-Phenylthiomethyl]-phenyl}-4-methyl-1,4-dihydrotetrazol-5-one]",≤ 30%
3,"Cc1cc(-n2nc(C)c(C)c2C)ccc1SCc1c(C)cccc1-n1nnn(C)c1=O [present compound 4, 1-{3-methyl-2-[2-methyl-4-(3,4,5-trimethyl-pyrazol-1-yl)-phenylthiomethyl]-phenyl}-4-methyl-1,4-dihydrotetrazol-5-one]",≤ 30%
4,"Cc1cc(-n2ccc(C(C)(C)C)n2)ccc1SCc1c(C)cccc1-n1nnn(C)c1=O [present compound 5, 1-{3-methyl-2-[2-methyl-4-(3-t-butyl-pyrazol-1-yl)-phenylthiomethyl]-phenyl}-4-methyl-1,4-dihydrotetrazol-5-one]",≤ 30%
5,"CCn1ccc(-c2ccc(SCc3c(C)cccc3-n3nnn(C)c3=O)c(C)c2)n1 [present compound 7, 1-{3-methyl-2-[2-methyl-4-(1-ethyl-1H-pyrazol-3-yl)-phenylthiomethyl]-phenyl}-4-methyl-1,4-dihydrotetrazol-5-one]",≤ 30%
6,"Cc1cc(-n2cccn2)ccc1SCc1c(C)cccc1-n1nnn(C)c1=O [present compound 11, 1-{3-methyl-2-[2-methyl-4-(pyrazol-1-yl)-phenylthiomethyl]-phenyl}-4-methyl-1,4-dihydrotetrazol-5-one]",≤ 30%
7,"Cc1cc(C)n(-c2cc(C)c(SCc3c(C)cccc3-n3nnn(C)c3=O)cc2C)n1 [present compound 13, 1-{3-methyl-2-[2,5-dimethyl-4-(3,5-dimethyl-pyrazol-1-yl)-phenylthiomethyl]-phenyl}-4-methyl-1,4-dihydrotetrazol-5-one]",≤ 30%
8,Cc1cc(-n2ccc(C(F)(F)F)n2)ccc1SCc1c(C)cccc1-n1nnn(C)c1=O [present compound 15],≤ 30%
9,Cc1cc(-n2ncc(C)c2C)ccc1SCc1c(C)cccc1-n1nnn(C)c1=O [present compound 19],≤ 30%
